Source: patent US11247998B2, “Piperazine heteroaryl derivative, preparation method therefor and use of same in medicine” (priority 2017, dated 2022)
For at least one compound, name, drawing or mass did not settle the structure.

Test: Pharmacokinetics assay in rats after intragastrical administration (LC/MS/MS of plasma)
Type: in vivo
Details: SD rats, 2 mg/kg
Description: Pharmacokinetics assay of the compound of the present invention
Rats were used as test animals. The drug concentration in plasma at different time points was determined by LC/MS/MS method after intragastrical administration of the compound of Example 1, the compound of Example 2, the compound of Example 4, the compound of Example 6, the compound of Example 7, the compound of Example 11, the compound of Example 39, the compound of Example 42, the compound of Example 44, the compound of Example 45 and the compound of Example 47 to rats. The pharmacokinetic behavior and property of the compound of the present invention were studied and evaluated in rats.
44 Healthy adult SD rats (half male and half female, 4 rats/group) were purchased from Shanghai Jiesijie Laboratory Animal Co., LTD, with Certificate No.: SCXK (Shanghai) 2013-0006. […]
The content of the test compound in the plasma of rats after intragastrical administration of the test compound at different concentrations was determined: 25 μL of rat plasma at each time after administration was taken, added with 40 μL of the internal standard solution of camptothecin (100 ng/mL) and 200 μL of acetonitrile, vortex-mixed for 5 minutes, and centrifuged for 10 minutes (4000 rpm). […]

C[C@H]1Cn2nnc(C(=O)N[C@H](C)C(F)(F)F)c2CN1C(=O)Nc1ccc(F)c(F)c1 [Example 39, (S)—N^5-(3,4-Difluorophenyl)-6-methyl-N^3-((R)-1,1,1-trifluoropropan-2-yl)-6,7-dihydro-[1,2,3]triazolo[1,5-α]pyrazine-3,5(4H)-dicarboxamide]
Apparent distribution volume Vz/F: 2.328 ± 0.59 L/kg
